Record: PubChem BioAssay AID1159578 (Peter MacCallum Cancer Centre, 2015)
Purpose: 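Knock-downs that alter how fast lymphatic endothelial cells migrate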 (primary screen). Cell system: human lymphatic endothelial cells. Knock-down reagent: siRNA pool against human genes, 40 nM. Timing: 48 h after transfection. Read-out: 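High-content imaging of dye-stained cells in a scratch assay measures filled wound area and nuclei per well; duplicate means given as ratio to mock and robust z-score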. Direction: migration robust z-score: higher = faster migration into the scratch; nuclei per well: higher = more cells in the well. Call rule: 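Migration changed when robust z exceeds 2 or falls below -2 and mean nuclei number is at least 3300; otherwise not called changed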. Calls: active = migration changed; inactive = no migration change, or too few cells.
Shown is a random part of about 18,000 reagents tested. In the full data, about 1,030 (5.7%) were called active. 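Inactive calls also include pools with fewer than 3300 nuclei, whose migration was not assessed.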 Raw values are not corrected between plates. Further read-outs or replicates are left out here.

For RAB20 [SID255358746], how do the results read?
migration robust z-score: 0.99; nuclei per well, duplicate mean: 6936; Outcome: inactive

With SLC12A7 [SID255355304], what was measured?
migration robust z-score: -2.02; nuclei per well, duplicate mean: 4876; Outcome: active

For BSND [SID255353305], what does the deposit list?
migration robust z-score: 0.44; nuclei per well, duplicate mean: 5192; Outcome: inactive

What is on record for DHX57 [SID255361876]?
migration robust z-score: 0.66; nuclei per well, duplicate mean: 4854; Outcome: inactive

Which result is listed for OR2AE1 [SID255360864]?
migration robust z-score: -0.98; nuclei per well, duplicate mean: 5368; Outcome: inactive

With AMDHD1 [SID255363211], what was measured?
migration robust z-score: -0.68; nuclei per well, duplicate mean: 6612; Outcome: inactive

For CIMAP1B [SID255365925], how do the results read?
migration robust z-score: -0.52; nuclei per well, duplicate mean: 5437; Outcome: inactive

What is on record for GMIP [SID255357622]?
migration robust z-score: 0.16; nuclei per well, duplicate mean: 6262; Outcome: inactive

With FAM50A [SID255354059], what was measured?
migration robust z-score: 0.92; nuclei per well, duplicate mean: 5832; Outcome: inactive

What is on record for ERCC5 [SID255349550]?
migration robust z-score: -1.97; nuclei per well, duplicate mean: 5524; Outcome: inactive

Which result is listed for LSAMP [SID255350801]?
migration robust z-score: -0.8; nuclei per well, duplicate mean: 6422; Outcome: inactive

With PHF21B [SID255362164], what was measured?
migration robust z-score: -0.52; nuclei per well, duplicate mean: 4726; Outcome: inactive

With IQSEC3 [SID255365888], what was measured?
migration robust z-score: 0.49; nuclei per well, duplicate mean: 5367; Outcome: inactive

In a second layout: entries from further up.
{"Gene":"RAB20","PubChem SID":"SID255358746","migration robust z-score":0.99,"nuclei per well, duplicate mean":6936,"Outcome":"inactive"}
{"Gene":"SLC12A7","PubChem SID":"SID255355304","migration robust z-score":-2.02,"nuclei per well, duplicate mean":4876,"Outcome":"active"}
{"Gene":"BSND","PubChem SID":"SID255353305","migration robust z-score":0.44,"nuclei per well, duplicate mean":5192,"Outcome":"inactive"}
{"Gene":"DHX57","PubChem SID":"SID255361876","migration robust z-score":0.66,"nuclei per well, duplicate mean":4854,"Outcome":"inactive"}

More results:
What did the screen give for KLC3 [SID255363337]?
migration robust z-score: 0.32; nuclei per well, duplicate mean: 6714; Outcome: inactive

With C2orf68 [SID255365533], what was measured?
migration robust z-score: -1.73; nuclei per well, duplicate mean: 2670; Outcome: inactive

With CELA3A [SID255354837], what was measured?
migration robust z-score: 0.29; nuclei per well, duplicate mean: 5357; Outcome: inactive

For HDX [SID255363073], how do the results read?
migration robust z-score: 1.31; nuclei per well, duplicate mean: 5480; Outcome: inactive

With ACVR1B [SID255348165], how do the results read?
migration robust z-score: -5.63; nuclei per well, duplicate mean: 1722; Outcome: inactive

Which result is listed for TES [SID255356683]?
migration robust z-score: -2.45; nuclei per well, duplicate mean: 4128; Outcome: active

For EVI2B [SID255349579], what does the deposit list?
migration robust z-score: 0.32; nuclei per well, duplicate mean: 5445; Outcome: inactive

Which result is listed for GIMAP1 [SID255363905]?
migration robust z-score: 0.47; nuclei per well, duplicate mean: 5768; Outcome: inactive

With SPSB1 [SID255360686], how do the results read?
migration robust z-score: -1.32; nuclei per well, duplicate mean: 5166; Outcome: inactive

Which result is listed for SHISA4 [SID255363411]?
migration robust z-score: -0.5; nuclei per well, duplicate mean: 6398; Outcome: inactive

What did the screen give for RAB36 [SID255354408]?
migration robust z-score: -2.83; nuclei per well, duplicate mean: 4698; Outcome: active

What is on record for SPATA31G1 [SID255363052]?
migration robust z-score: 0.19; nuclei per well, duplicate mean: 5492; Outcome: inactive

For SMARCA4 [SID255352518], what was measured?
migration robust z-score: -0.78; nuclei per well, duplicate mean: 4294; Outcome: inactive

For PAQR8 [SID255361661], what does the deposit list?
migration robust z-score: 0.06; nuclei per well, duplicate mean: 6178; Outcome: inactive
